Experimental data published in patent US20180008573A1, “METHODS AND COMPOSITIONS FOR REDUCING DAMAGE ASSOCIATED WITH OXIDATIVE PHOSPHORYLATION” (USANA Health Sciences, Inc., priority 2016, published 2018).
At least one compound was matched to its structure with a doubt left.

System: C. elegans strain CB5586
Assay: C. elegans phenotypic lifespan screening (Kaplan-Meier, Log-Rank, Fisher's Exact Test)
Format: in vivo
Protocol: Dilutions of the test formulations were applied to individual populations of C. elegans and the lifespan of each population was monitored. Any changes in the lifespan of an individual population compared to a control population were recorded and correlated to the respective test formulation (N356 or N357) and the respective dilution (0.1 mg/ml, 1 mg/ml, and 10 mg/ml).
The […] and N357 formulations were each prepared as individual 100 mg/ml stock solutions in dimethyl sulfoxide (DMSO). Serial dilutions of each stock solution were then prepared at 0.1 mg/ml, 1 mg/ml, and 10 mg/ml in DMSO. Control solutions of DMSO only were also prepared. Synchronous aged adult populations of C.elegans strain CB5586 worms were prepared. The CB5586 strain comprises a pharyngeal GFP (green fluorescent protein) tag and a mutation in the bus-5 gene. The pharyngeal GFP tag allows for fluorescent images of the worm populations to be taken. […]
Each worm population was then monitored by fluorescent imaging to determine the number of living and dead worms as a function of time. The fluorescent imaging was analyzed by software that recognized and counted worms based on their fluorescent intensity compared to background fluorescence. […] The ability to distinguish between living and dead worms allowed the number of living worms and cumulative number of dead worms to be monitored against time. Worm populations from a selection of fluorescent images were manually checked to verify that the software had accurately counted the number of living and dead worms.
The counts of the living and dead worms as a function of time were then analyzed for each of the worm populations and used to prepare Kaplan-Meier survival curves and associated statistics for each of the worm populations. […]
The counts of the living and dead worms as a function of time and the Kaplan-Meier survival curves and the associated statistics were then analyzed for each of the worm populations. […]

Structure (SMILES): C[C@@H]1O[C@@H](OC[C@H]2O[C@@H](Oc3c(-c4ccc(O)c(O)c4)oc4cc(O)cc(O)c4c3=O)[C@H](O)[C@@H](O)[C@@H]2O)[C@H](O)[C@H](O)[C@H]1O [N346, rutin hydrate]
- Statistically Significant Result (lifespan vs. DMSO control) (0.1 mg/ml): Statistically significant decrease
- effect on chronological lifespan (0.1 mg/ml and 10 mg/ml tested): significant negative effect on chronological lifespan at certain tested concentrations
- Statistically Significant Result (lifespan vs. DMSO control) (10 mg/ml): No statistical difference
